According to PubChem BioAssay AID248 (DTP/NCI, 2004):
The list does not hold the whole screen: it gathers tests that were run many times, whatever their T/C, doses with no T/C, and many T/C values between a quarter and a half above the control. Other doses and runs of a compound stand elsewhere. T/C: endpoint of the treated group in % of that of the vehicle group. Some entries give survivors of the animals treated and no T/C: the source files T/C as zero there, which appears to mark a toxic dose or a test without result, not a measured value. Some survivor counts are full or nearly so, which does not show that the dose was tolerated: survival well below the control is almost never listed, so the zero probably covers shortened survival too. Counts of survivors are from the toxicity check (mostly the fifth day) where no day follows; animals may have died later. Schedule codes are those of the source, taken here to give the interval after Q, in days (D) or hours (H), and the number of doses after X. Some schedules carry Z or #; the key to these is not given. Some structures stand for samples that the source files as different forms (salt, stereo form or complex); doses refer to the form tested. Some entries were tested several times; their values stand side by side, smallest first. Where survival is the endpoint, the PubChem record calls one and a half times the control and up active, and a quarter to a half above the control has no call in these data; cut-offs in other NCI protocols can differ.

Tested on: L1210 leukemia ip in BDF1 mice, survival T/C
Assay: NCI In Vivo Anticancer Drug Screen. Data for tumor model L1210 Leukemia (intraperitoneal) in B6D2F1 (BDF1) mice
Conditions: T/C endpoint: mean survival time, higher T/C = longer survival
[1] = dose: 400.0 mg/kg/injection, schedule: Q01DX001 (ip), vehicle: saline
[2] = dose: 400.0 mg/kg/injection, schedule: Q04DX003 (ip), vehicle: saline
[3] = dose: 150.0 mg/kg/injection, schedule: Q01DX001 (ip), vehicle: saline
[4] = dose: 300.0 mg/kg/injection, schedule: Q01DX001 (ip), vehicle: saline
[5] = dose: 100.0 mg/kg/injection, schedule: Q04DX003 (ip), vehicle: Klucel (hydroxypropylcellulose) (HPC)
[6] = dose: 200.0 mg/kg/injection, schedule: Q04DX003 (ip), vehicle: Klucel (hydroxypropylcellulose) (HPC)
[7] = dose: 400.0 mg/kg/injection, schedule: Q04DX003 (ip), vehicle: Klucel (hydroxypropylcellulose) (HPC)
[8] = dose: 200.0 mg/kg/injection, schedule: Q04DX003 (ip), vehicle: saline
[9] = dose: 200.0 mg/kg/injection, schedule: Q01DX009 (ip), vehicle: Klucel (hydroxypropylcellulose) (HPC)
[10] = dose: 100.0 mg/kg/injection, schedule: Q01DX009 (ip), vehicle: saline with Tween-80
[11] = dose: 200.0 mg/kg/injection, schedule: Q01DX009 (ip), vehicle: saline with Tween-80
[12] = dose: 400.0 mg/kg/injection, schedule: Q01DX009 (ip), vehicle: Klucel (hydroxypropylcellulose) (HPC)

SMILES: O=C(CBr)NCCCCc1ccc(C(=O)O)cc1
- survivor count (dose: 80.0 mg/kg/injection, schedule: Q01DX001 (ip), vehicle: carboxymethylcellulose (CMC)): 1 of 6
- survivor count (dose: 100.0 mg/kg/injection, schedule: Q01DX001 (ip), vehicle: carboxymethylcellulose (CMC)): 3 of 6
- survivor count (dose: 200.0 mg/kg/injection, schedule: Q01DX001 (ip), vehicle: carboxymethylcellulose (CMC)): 0 of 6
- survivor count (dose: 400.0 mg/kg/injection, schedule: Q01DX001 (ip), vehicle: carboxymethylcellulose (CMC)): 0 of 6

SMILES: Cc1cccc(C)c1NC(=O)Nc1ncccn1
- survivor count (dose: 100.0 mg/kg/injection, schedule: Q04DX002 (ip), vehicle: Klucel (hydroxypropylcellulose) (HPC)): 3 of 3

SMILES: CCOC(=O)NC(=S)[S][Sb]([S]C(=S)NC(=O)OCC)[S]C(=S)Nc1ccc(S(=O)(=O)Nc2ccc(N=Nc3ccccc3)cc2)cc1
- survivor count (dose: 200.0 mg/kg/injection, schedule: Q01DX001 (ip), vehicle: steroid suspending solution): 1 of 6

SMILES: CCCCCC(Oc1ccc(Cl)cc1Cl)C(=O)O (stereo unspecified)
- survivor count (dose: 400.0 mg/kg/injection, schedule: Q04DX002 (ip), vehicle: Klucel (hydroxypropylcellulose) (HPC)): 0 of 3

SMILES: CC(C)Cc1nc2c([nH]1)c(=O)n(C)c(=O)n2C
- survivor count [1]: 0 of 4

SMILES: O=C(O)c1ccccc1/C=C1/Nc2ccccc2C1=O
- survivor count (dose: 40.0 mg/kg/injection, schedule: Q01DX001 (ip), vehicle: acetone): 1 of 6
- survivor count (dose: 75.0 mg/kg/injection, schedule: Q01DX001 (ip), vehicle: acetone): 0 of 6
- survivor count (dose: 150.0 mg/kg/injection, schedule: Q01DX001 (ip), vehicle: acetone): 0 of 6
- survivor count (dose: 300.0 mg/kg/injection, schedule: Q01DX001 (ip), vehicle: acetone): 0 of 6

SMILES: O=C(O)CC[S-].[Ag+]
- survivor count (dose: 400.0 mg/kg/injection, schedule: Q01DX001 (ip), vehicle: other): 6 of 6

SMILES: NCC(=O)NC(CCCC(N)C(=O)OCc1ccccc1)C(=O)O (stereo unspecified)
- survivor count (dose: 75.0 mg/kg/injection, schedule: Q04DX003 (ip), vehicle: Klucel (hydroxypropylcellulose) (HPC)): 3 of 6
- survivor count (dose: 150.0 mg/kg/injection, schedule: Q04DX003 (ip), vehicle: Klucel (hydroxypropylcellulose) (HPC)): 1 of 6
- survivor count (dose: 300.0 mg/kg/injection, schedule: Q04DX003 (ip), vehicle: Klucel (hydroxypropylcellulose) (HPC)): 0 of 6

SMILES: CN(C)CCOC(=O)c1ccc(N)cc1
- survivor count [2]: 2 of 6

SMILES: SC1(S)CC(c2ccc(Cl)cc2)NC(c2ccc(Cl)cc2)C1 (stereo unspecified)
- survivor count (dose: 400.0 mg/kg/injection, schedule: Q01DX009 (ip), vehicle: saline): 2 of 6
- survivor count [2]: 3 of 6

SMILES: CCCCCNCCOC(=O)c1ccc(N)cc1
- survivor count (dose: 75.0 mg/kg/injection, schedule: Q01DX001 (ip), vehicle: saline): 0 of 6
- survivor count [3]: 0 of 6
- survivor count [4]: 0 of 6

SMILES: Cc1c([N+](=O)[O-])cc(C(C)(C)C)c(OC(=O)Nc2ccccc2)c1[N+](=O)[O-]
- survivor count [5]: 0 of 6
- survivor count [6]: 0 of 6
- survivor count [7]: 0 of 6

SMILES: CCCCN(CCCC)CC(=O)Nc1ccc(C(=O)OCC(C)C)cc1
- survivor count (dose: 100.0 mg/kg/injection, schedule: Q01DX Z (ip), vehicle: saline): 0 of 6

SMILES: C#CC(=O)OC
- survivor count (dose: 12.5 mg/kg/injection, schedule: Q04DX003 (ip), vehicle: saline): 2 of 6
- survivor count (dose: 25.0 mg/kg/injection, schedule: Q04DX003 (ip), vehicle: saline): 1 of 6
- survivor count (dose: 50.0 mg/kg/injection, schedule: Q04DX003 (ip), vehicle: saline): 0 of 6
- survivor count (dose: 100.0 mg/kg/injection, schedule: Q04DX003 (ip), vehicle: saline): 0 of 6
- survivor count [8]: 0 of 6
- survivor count [2]: 0 of 6

SMILES: COc1ccc(/C=N/NC(=O)c2ccccc2NC(=O)c2ccccc2Cl)cc1
- survivor count [9]: 6 of 6

SMILES: Clc1ncnc2ccccc12
- survivor count (dose: 400.0 mg/kg/injection, schedule: Q01DX001 (ip), vehicle: Klucel (hydroxypropylcellulose) (HPC)): 3 of 6

SMILES: C[N+]1(C)C2CSCC1CC(O)C2 (stereo unspecified)
- survivor count [8]: 1 of 6
- survivor count [2]: 0 of 6

SMILES: NC(CC[Se]Cc1ccccc1)C(=O)O (stereo unspecified)
- survivor count (dose: 50.0 mg/kg/injection, schedule: Q01DX009 (ip), vehicle: saline with Tween-80): 3 of 6
- survivor count [10]: 0 of 6
- survivor count [11]: 0 of 6

SMILES: CC1CN1P(=O)(N1CCCCC1)N1CC1C (stereo unspecified)
- T/C (dose: 25.0 mg/kg/injection, schedule: Q01DX Z (ip), vehicle: saline): 132 % of control
- T/C (dose: 57.0 mg/kg/injection, schedule: Q01DX Z (ip), vehicle: carboxymethylcellulose (CMC)): 133 % of control
- survivor count (dose: 65.0 mg/kg/injection, schedule: Q01DX Z (ip), vehicle: carboxymethylcellulose (CMC)): 6 of 6
- survivor count (dose: 100.0 mg/kg/injection, schedule: Q01DX Z (ip), vehicle: carboxymethylcellulose (CMC)): 6 of 6
- survivor count (dose: 150.0 mg/kg/injection, schedule: Q01DX Z (ip), vehicle: carboxymethylcellulose (CMC)): 5 of 6
- survivor count (dose: 192.0 mg/kg/injection, schedule: Q01DX Z (ip), vehicle: saline): 5 of 6
- survivor count (dose: 384.0 mg/kg/injection, schedule: Q01DX Z (ip), vehicle: saline): 2 of 6
- survivor count (dose: 768.0 mg/kg/injection, schedule: Q01DX Z (ip), vehicle: saline): 0 of 6

SMILES: CCC(/C=C1\Oc2ccc(-c3ccccc3)cc2N1CC)=C\c1oc2ccc(-c3ccccc3)cc2[n+]1CC
- T/C (dose: 1.2 mg/kg/injection, schedule: Q01DX009 (ip), vehicle: other): 138 % of control
- T/C (dose: 1.8 mg/kg/injection, schedule: Q01DX009 (ip), vehicle: other): 132 % of control
- T/C (dose: 4.0 mg/kg/injection, schedule: Q01DX009 (ip), vehicle: other): 126 % of control
- T/C (dose: 9.5 mg/kg/injection, schedule: Q01DX001 (ip), vehicle: other): 125 % of control
- survivor count (dose: 38.0 mg/kg/injection, schedule: Q01DX001 (ip), vehicle: other): 0 of 6

SMILES: Nc1cc2c3c(cccc3c1Br)C(=O)N(Cc1ccccc1)C2=O
- survivor count [5]: 6 of 6
- survivor count [6]: 6 of 6

SMILES: CCOC(=O)N/N=C(/C)c1cccc([N+](=O)[O-])c1
- survivor count [9]: 0 of 6
- survivor count [12]: 0 of 6

SMILES: CC[n+]1c(C)ccc2ccccc21
- survivor count (dose: 100.0 mg/kg/injection, schedule: Q01DX001 (ip), vehicle: saline): 2 of 4
- survivor count (dose: 100.0 mg/kg/injection, schedule: Q01DX009 (ip), vehicle: Klucel (hydroxypropylcellulose) (HPC)): 0 of 6
- survivor count [5]: 0 of 6 and 5 of 6
- survivor count (dose: 200.0 mg/kg/injection, schedule: Q01DX001 (ip), vehicle: saline): 0 of 4
- survivor count [9]: 0 of 6
- survivor count [6]: 0 of 6
- survivor count [1]: 0 of 4
- survivor count [12]: 0 of 6
- survivor count [7]: 0 of 6

SMILES: CCOC(=O)P(C(=O)OCC)C(=O)OCC
- survivor count [3]: 0 of 6
- survivor count [4]: 0 of 6

SMILES: BrC1C=CC=CN1C/C=C/CN1C=CC=CC1Br (stereo unspecified)
- survivor count [4]: 0 of 6

SMILES: CCCCC1(C(C)C)C(=O)NC(=O)NC1=O
- survivor count [4]: 3 of 6

SMILES: CCN(CC)CCCCN(C)c1ccccc1
- survivor count (dose: 100.0 mg/kg/injection, schedule: Q04DX003 (ip), vehicle: acetone): 2 of 6
- survivor count (dose: 200.0 mg/kg/injection, schedule: Q04DX003 (ip), vehicle: acetone): 0 of 6
- survivor count (dose: 400.0 mg/kg/injection, schedule: Q04DX003 (ip), vehicle: acetone): 0 of 6

SMILES: CC1(C)C=CC(=NO)C=C1
- survivor count [12]: 0 of 6

SMILES: CCCCC(C)NC1=C(Cl)C(=O)c2ccccc2C1=O (stereo unspecified)
- survivor count [10]: 5 of 6
- survivor count [11]: 5 of 6
- survivor count (dose: 400.0 mg/kg/injection, schedule: Q01DX009 (ip), vehicle: saline with Tween-80): 5 of 6
